Measured data: PubChem BioAssay AID1224828 (NIAID, 2016)
In all, the deposit lists about 17,000 reagents; shown is a random part of them. 762 of them (4.5%) were called active. 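Active calls include both raised and lowered p65 entry, mostly lowered; wells with fewer than 50 cells lack a z-score.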 Raw values vary from plate to plate and are shown uncorrected. A reagent listed more than once was tested more than once; the source does not tell the runs apart.

Purpose: 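Find genes required for NF-kappaB p65 moving into the nucleus after LPS in mouse macrophages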 (primary screen)
System: mouse RAW264.7 G9 macrophage reporter cells (GFP-p65, Tnf promoter-mCherry)
Reagent: siRNA pool against mouse genes, 100 nM
Time to read-out: 2 days siRNA transfection, then 40 min LPS before fixation
Challenge: LPS (Salmonella minnesota R595) at 10 ng/ml
Read-out: 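Imaged p65 nuclear translocation ratio, normalised to the plate median, converted to robust z-scores and averaged across two replicates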
Direction: p65 translocation robust z-score: higher = more nuclear NF-kappaB p65 after LPS than the plate median; nuclear/cytoplasmic p65 ratio: higher = more nuclear NF-kappaB p65
Hit rule: 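Active if robust z is above 3.3 (negative regulators) or below -1.56, the Tlr4 control median (positive regulators); activity score 50 or more; control wells not called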
Calls: active = hit (p65 shift raised or lowered); inactive = no clear change

{"gene": "Akr1b8 (aldo-keto reductase family 1, member B8)", "p65 translocation robust z-score": 0.37, "nuclear/cytoplasmic p65 ratio, rep 1": 1.69, "nuclear/cytoplasmic p65 ratio, rep 2": 1.65, "low cell count flag": "enough cells to score", "outcome": "inactive"}
{"gene": "Btk (Bruton agammaglobulinemia tyrosine kinase)", "p65 translocation robust z-score": 2.11, "nuclear/cytoplasmic p65 ratio, rep 1": 1.35, "nuclear/cytoplasmic p65 ratio, rep 2": 1.65, "low cell count flag": "enough cells to score", "outcome": "inactive"}
{"gene": "Or10d4b (olfactory receptor family 10 subfamily D member 4B)", "p65 translocation robust z-score": -0.28, "nuclear/cytoplasmic p65 ratio, rep 1": 1.39, "nuclear/cytoplasmic p65 ratio, rep 2": 1.23, "low cell count flag": "enough cells to score", "outcome": "inactive"}
{"gene": "Or5p57 (olfactory receptor family 5 subfamily P member 57)", "nuclear/cytoplasmic p65 ratio, rep 1": 1.48, "nuclear/cytoplasmic p65 ratio, rep 2": 1.08, "low cell count flag": "fewer than 50 cells per well; well left out of scoring", "outcome": "inactive"}
{"gene": "Hal (histidine ammonia lyase)", "p65 translocation robust z-score": 0.15, "nuclear/cytoplasmic p65 ratio, rep 1": 1.34, "nuclear/cytoplasmic p65 ratio, rep 2": 1.5, "low cell count flag": "enough cells to score", "outcome": "inactive"}
{"gene": "Capsl (calcyphosine-like)", "p65 translocation robust z-score": -1.55, "nuclear/cytoplasmic p65 ratio, rep 1": 1.19, "nuclear/cytoplasmic p65 ratio, rep 2": 1.49, "low cell count flag": "enough cells to score", "outcome": "inactive"}
{"gene": "Ptpn14 (protein tyrosine phosphatase, non-receptor type 14)", "p65 translocation robust z-score": 0.11, "nuclear/cytoplasmic p65 ratio, rep 1": 1.26, "nuclear/cytoplasmic p65 ratio, rep 2": 1.42, "low cell count flag": "enough cells to score", "outcome": "inactive"}
{"gene": "Washc3 (WASH complex subunit 3)", "nuclear/cytoplasmic p65 ratio, rep 1": 1.04, "nuclear/cytoplasmic p65 ratio, rep 2": 0.94, "low cell count flag": "fewer than 50 cells per well; well left out of scoring", "outcome": "inactive"}
{"gene": "Olfml3 (olfactomedin-like 3)", "p65 translocation robust z-score": 1.27, "nuclear/cytoplasmic p65 ratio, rep 1": 1.95, "nuclear/cytoplasmic p65 ratio, rep 2": 1.68, "low cell count flag": "enough cells to score", "outcome": "inactive"}
{"gene": "Ms4a2 (membrane-spanning 4-domains, subfamily A, member 2)", "p65 translocation robust z-score": -0.59, "nuclear/cytoplasmic p65 ratio, rep 1": 1.36, "nuclear/cytoplasmic p65 ratio, rep 2": 1.58, "low cell count flag": "enough cells to score", "outcome": "inactive"}
{"gene": "Or2n1c (olfactory receptor family 2 subfamily N member 1C)", "p65 translocation robust z-score": -0.4, "nuclear/cytoplasmic p65 ratio, rep 1": 1.5, "nuclear/cytoplasmic p65 ratio, rep 2": 1.37, "low cell count flag": "enough cells to score", "outcome": "inactive"}
{"gene": "Map2k5 (mitogen-activated protein kinase kinase 5)", "p65 translocation robust z-score": 1.41, "nuclear/cytoplasmic p65 ratio, rep 1": 1.8, "nuclear/cytoplasmic p65 ratio, rep 2": 1.64, "low cell count flag": "enough cells to score", "outcome": "inactive"}
{"gene": "Cd3e (CD3 antigen, epsilon polypeptide)", "p65 translocation robust z-score": 0.16, "nuclear/cytoplasmic p65 ratio, rep 1": 1.61, "nuclear/cytoplasmic p65 ratio, rep 2": 1.41, "low cell count flag": "enough cells to score", "outcome": "inactive"}
{"gene": "Cd3e (CD3 antigen, epsilon polypeptide)", "p65 translocation robust z-score": -0.65, "nuclear/cytoplasmic p65 ratio, rep 1": 1.43, "nuclear/cytoplasmic p65 ratio, rep 2": 1.47, "low cell count flag": "enough cells to score", "outcome": "inactive"}
{"gene": "Spag17os (sperm associated antigen 17, opposite strand)", "p65 translocation robust z-score": 1.37, "nuclear/cytoplasmic p65 ratio, rep 1": 1.82, "nuclear/cytoplasmic p65 ratio, rep 2": 2.02, "low cell count flag": "enough cells to score", "outcome": "inactive"}
{"gene": "Tbx21 (T-box 21)", "p65 translocation robust z-score": -1.46, "nuclear/cytoplasmic p65 ratio, rep 1": 1.29, "nuclear/cytoplasmic p65 ratio, rep 2": 1.34, "low cell count flag": "enough cells to score", "outcome": "inactive"}
{"gene": "Adamts10 (ADAM metallopeptidase with thrombospondin type 1 motif 10)", "p65 translocation robust z-score": 0.59, "nuclear/cytoplasmic p65 ratio, rep 1": 1.78, "nuclear/cytoplasmic p65 ratio, rep 2": 1.69, "low cell count flag": "enough cells to score", "outcome": "inactive"}
{"gene": "Or6c35 (olfactory receptor family 6 subfamily C member 35)", "nuclear/cytoplasmic p65 ratio, rep 1": 1.75, "nuclear/cytoplasmic p65 ratio, rep 2": 1.73, "low cell count flag": "fewer than 50 cells per well; well left out of scoring", "outcome": "inactive"}
{"gene": "Vmn1r205 (vomeronasal 1 receptor 205)", "nuclear/cytoplasmic p65 ratio, rep 1": 1.37, "nuclear/cytoplasmic p65 ratio, rep 2": 1.2, "low cell count flag": "fewer than 50 cells per well; well left out of scoring", "outcome": "inactive"}
{"gene": "Eif3i (eukaryotic translation initiation factor 3, subunit I)", "p65 translocation robust z-score": -0.98, "nuclear/cytoplasmic p65 ratio, rep 1": 1.4, "nuclear/cytoplasmic p65 ratio, rep 2": 1.18, "low cell count flag": "enough cells to score", "outcome": "inactive"}
{"gene": "Prpf6 (pre-mRNA splicing factor 6)", "nuclear/cytoplasmic p65 ratio, rep 1": 1.1, "nuclear/cytoplasmic p65 ratio, rep 2": 1.08, "low cell count flag": "fewer than 50 cells per well; well left out of scoring", "outcome": "inactive"}
{"gene": "Fkbp14 (FK506 binding protein 14)", "p65 translocation robust z-score": -0.28, "nuclear/cytoplasmic p65 ratio, rep 1": 1.57, "nuclear/cytoplasmic p65 ratio, rep 2": 1.57, "low cell count flag": "enough cells to score", "outcome": "inactive"}
{"gene": "Elmo2 (engulfment and cell motility 2)", "p65 translocation robust z-score": -0.29, "nuclear/cytoplasmic p65 ratio, rep 1": 1.39, "nuclear/cytoplasmic p65 ratio, rep 2": 1.36, "low cell count flag": "enough cells to score", "outcome": "inactive"}
{"gene": "Wdr72 (WD repeat domain 72)", "p65 translocation robust z-score": -0.99, "nuclear/cytoplasmic p65 ratio, rep 1": 1.43, "nuclear/cytoplasmic p65 ratio, rep 2": 1.4, "low cell count flag": "enough cells to score", "outcome": "inactive"}
{"gene": "Or5b12 (olfactory receptor family 5 subfamily B member 12)", "p65 translocation robust z-score": 0.41, "nuclear/cytoplasmic p65 ratio, rep 1": 1.7, "nuclear/cytoplasmic p65 ratio, rep 2": 1.45, "low cell count flag": "enough cells to score", "outcome": "inactive"}
{"gene": "Timm22 (translocase of inner mitochondrial membrane 22)", "nuclear/cytoplasmic p65 ratio, rep 1": 1.23, "nuclear/cytoplasmic p65 ratio, rep 2": 1.18, "low cell count flag": "fewer than 50 cells per well; well left out of scoring", "outcome": "inactive"}
{"gene": "Dse (dermatan sulfate epimerase)", "p65 translocation robust z-score": -0.69, "nuclear/cytoplasmic p65 ratio, rep 1": 1.14, "nuclear/cytoplasmic p65 ratio, rep 2": 1.14, "low cell count flag": "enough cells to score", "outcome": "inactive"}

A run of entries taken from the entries so far, for reference:
{"gene": "Hal (histidine ammonia lyase)", "p65 translocation robust z-score": 0.15, "nuclear/cytoplasmic p65 ratio, rep 1": 1.34, "nuclear/cytoplasmic p65 ratio, rep 2": 1.5, "low cell count flag": "enough cells to score", "outcome": "inactive"}
{"gene": "Capsl (calcyphosine-like)", "p65 translocation robust z-score": -1.55, "nuclear/cytoplasmic p65 ratio, rep 1": 1.19, "nuclear/cytoplasmic p65 ratio, rep 2": 1.49, "low cell count flag": "enough cells to score", "outcome": "inactive"}
{"gene": "Ptpn14 (protein tyrosine phosphatase, non-receptor type 14)", "p65 translocation robust z-score": 0.11, "nuclear/cytoplasmic p65 ratio, rep 1": 1.26, "nuclear/cytoplasmic p65 ratio, rep 2": 1.42, "low cell count flag": "enough cells to score", "outcome": "inactive"}
